{"source": "patent CN113999308A", "binders": {"B1": {"name": "Nb193纳米抗体 (Nb193 nanobody) (VHH, not shown: small tags and cut ends)", "VHH": "AVQLVESGGGLVQAGGSLRLSCVASGSTLERYAVYWYRQPPGKERELVAGIMRGGNINYADSVKGRFTISKDYAKNTLILQMNSLKPEDTAVYYCNAGGSRFGYWGQGTQVTVSS"}}, "key": {"[1]": {"target": "T1, CDH17蛋白细胞外段1~3结构域 (recombinant CDH17 extracellular domains 1-3) (human) (UniProt Q12864)", "T1 sequence (looked up)": "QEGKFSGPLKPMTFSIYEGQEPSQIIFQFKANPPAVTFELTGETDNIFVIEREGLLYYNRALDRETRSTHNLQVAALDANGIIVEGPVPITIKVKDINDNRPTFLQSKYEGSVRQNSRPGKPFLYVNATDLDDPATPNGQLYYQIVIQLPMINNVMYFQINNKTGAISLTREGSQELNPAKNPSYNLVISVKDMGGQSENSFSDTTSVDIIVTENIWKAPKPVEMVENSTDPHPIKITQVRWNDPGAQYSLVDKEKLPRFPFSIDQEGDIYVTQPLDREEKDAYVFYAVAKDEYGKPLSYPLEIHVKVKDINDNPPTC", "test": "ELISA on CDH17 domains 1-3 (Fig. 5A)"}, "[2]": {"target": "T1, CDH17蛋白细胞外段1~3结构域 (recombinant CDH17 extracellular domains 1-3) (human)", "test": "ELISA with purified nanobodies on hCDH17 (Fig. 3C)"}}, "note": "Results are given in words; binding and its absence hold for the method and conditions named. Some results given as binding are weak or reduced against the parent protein; the word gives no strength."}
{"binder": "B1", "values": [{"measurement": "binding", "setting": "[1]", "result": "binds"}, {"measurement": "binding", "setting": "[2]", "result": "binds"}]}
